Consider seven substances from patent US20080064643A1 (priority 2004, published 2008).

Series [1] in a line: general procedure: Fmoc solid-phase peptide synthesis; Rink Amide MBHA; HOBt-TBTU, DIPEA; acyl chloride (SOCl2) for difficult acylations. To be noted: whole synthesis, scale ~50 μmol.
The nature of series [2]: general procedure: Fmoc solid-phase peptide synthesis; Rink amide MBHA; HOBt-TBTU, DIPEA; acyl chloride (SOCl2) for difficult acylations. The note with it: whole synthesis, scale ~50 μmol.

As for “Ac-Arg-Asp-AzaLeu-Val-Pro-Gly-NH2 (LVPG; Ac-Arg-Asp-Aza N-terminal; C-terminal amide; printed: Leu-Val-Pro-Gly-)”, the isolated mass in series [1] came to 12.00 mg. In series [1], Ac-Arg-Asp-Azagly-Val-Pro-Gly-NH2 returned an isolated mass of 18.2 mg. In series [1], Ac-Arg-Asp-Val-AzaVal-Pro-Gly-NH2 yielded an isolated mass of 11.7 mg. Ac-Gly-Pro-SP30-Arg-NH2 displayed an isolated mass in series [2] of 19.0 mg.

Turning to “H-Arg-Gly-AzaVal-Val-Pro-Gly-NH2 (VVPG; H-Arg-Gly-Aza N-terminal; C-terminal amide; printed: Val-Val-Pro-Gly-)”, the isolated mass in series [1] is reported as 4.9 mg.

In series [2], PAM9-Asp-Val-Val-Beta2-NH2 displayed an isolated mass of 19.0 mg.

Consider PAM9-SP02-Beta2-Thr-NH2, for which the isolated mass in series [2] is 9.1 mg.
